Measurements published in the supplement of paper PMC10849652.
The list shows a part of the results.

Sequences of proteins named here, by UniProt entry; tags and fusion partners are left off. A change or cut given only in a name is not applied to a line headed by its entry.
UniProt Q96RS0: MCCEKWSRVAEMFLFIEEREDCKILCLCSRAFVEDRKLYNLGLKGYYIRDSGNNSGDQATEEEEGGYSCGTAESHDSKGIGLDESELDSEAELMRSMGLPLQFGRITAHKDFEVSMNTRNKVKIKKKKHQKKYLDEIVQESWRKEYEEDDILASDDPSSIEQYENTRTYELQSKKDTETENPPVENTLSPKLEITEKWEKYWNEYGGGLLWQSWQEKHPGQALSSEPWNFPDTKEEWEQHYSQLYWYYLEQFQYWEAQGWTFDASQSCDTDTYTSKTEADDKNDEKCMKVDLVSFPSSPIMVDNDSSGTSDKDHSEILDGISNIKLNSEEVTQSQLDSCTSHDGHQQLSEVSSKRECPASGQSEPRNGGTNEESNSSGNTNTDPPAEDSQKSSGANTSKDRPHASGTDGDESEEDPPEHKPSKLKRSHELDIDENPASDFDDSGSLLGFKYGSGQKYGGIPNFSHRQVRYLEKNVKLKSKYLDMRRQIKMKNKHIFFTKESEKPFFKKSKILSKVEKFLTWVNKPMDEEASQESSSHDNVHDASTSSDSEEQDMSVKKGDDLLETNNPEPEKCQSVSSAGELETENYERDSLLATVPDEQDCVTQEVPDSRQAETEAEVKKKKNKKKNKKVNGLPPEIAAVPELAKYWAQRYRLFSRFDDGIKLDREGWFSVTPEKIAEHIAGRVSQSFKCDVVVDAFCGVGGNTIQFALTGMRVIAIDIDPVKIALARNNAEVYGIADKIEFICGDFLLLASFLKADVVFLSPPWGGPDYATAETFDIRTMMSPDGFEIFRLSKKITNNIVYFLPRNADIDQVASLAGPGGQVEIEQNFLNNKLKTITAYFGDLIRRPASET
UniProt Q9Y4G6: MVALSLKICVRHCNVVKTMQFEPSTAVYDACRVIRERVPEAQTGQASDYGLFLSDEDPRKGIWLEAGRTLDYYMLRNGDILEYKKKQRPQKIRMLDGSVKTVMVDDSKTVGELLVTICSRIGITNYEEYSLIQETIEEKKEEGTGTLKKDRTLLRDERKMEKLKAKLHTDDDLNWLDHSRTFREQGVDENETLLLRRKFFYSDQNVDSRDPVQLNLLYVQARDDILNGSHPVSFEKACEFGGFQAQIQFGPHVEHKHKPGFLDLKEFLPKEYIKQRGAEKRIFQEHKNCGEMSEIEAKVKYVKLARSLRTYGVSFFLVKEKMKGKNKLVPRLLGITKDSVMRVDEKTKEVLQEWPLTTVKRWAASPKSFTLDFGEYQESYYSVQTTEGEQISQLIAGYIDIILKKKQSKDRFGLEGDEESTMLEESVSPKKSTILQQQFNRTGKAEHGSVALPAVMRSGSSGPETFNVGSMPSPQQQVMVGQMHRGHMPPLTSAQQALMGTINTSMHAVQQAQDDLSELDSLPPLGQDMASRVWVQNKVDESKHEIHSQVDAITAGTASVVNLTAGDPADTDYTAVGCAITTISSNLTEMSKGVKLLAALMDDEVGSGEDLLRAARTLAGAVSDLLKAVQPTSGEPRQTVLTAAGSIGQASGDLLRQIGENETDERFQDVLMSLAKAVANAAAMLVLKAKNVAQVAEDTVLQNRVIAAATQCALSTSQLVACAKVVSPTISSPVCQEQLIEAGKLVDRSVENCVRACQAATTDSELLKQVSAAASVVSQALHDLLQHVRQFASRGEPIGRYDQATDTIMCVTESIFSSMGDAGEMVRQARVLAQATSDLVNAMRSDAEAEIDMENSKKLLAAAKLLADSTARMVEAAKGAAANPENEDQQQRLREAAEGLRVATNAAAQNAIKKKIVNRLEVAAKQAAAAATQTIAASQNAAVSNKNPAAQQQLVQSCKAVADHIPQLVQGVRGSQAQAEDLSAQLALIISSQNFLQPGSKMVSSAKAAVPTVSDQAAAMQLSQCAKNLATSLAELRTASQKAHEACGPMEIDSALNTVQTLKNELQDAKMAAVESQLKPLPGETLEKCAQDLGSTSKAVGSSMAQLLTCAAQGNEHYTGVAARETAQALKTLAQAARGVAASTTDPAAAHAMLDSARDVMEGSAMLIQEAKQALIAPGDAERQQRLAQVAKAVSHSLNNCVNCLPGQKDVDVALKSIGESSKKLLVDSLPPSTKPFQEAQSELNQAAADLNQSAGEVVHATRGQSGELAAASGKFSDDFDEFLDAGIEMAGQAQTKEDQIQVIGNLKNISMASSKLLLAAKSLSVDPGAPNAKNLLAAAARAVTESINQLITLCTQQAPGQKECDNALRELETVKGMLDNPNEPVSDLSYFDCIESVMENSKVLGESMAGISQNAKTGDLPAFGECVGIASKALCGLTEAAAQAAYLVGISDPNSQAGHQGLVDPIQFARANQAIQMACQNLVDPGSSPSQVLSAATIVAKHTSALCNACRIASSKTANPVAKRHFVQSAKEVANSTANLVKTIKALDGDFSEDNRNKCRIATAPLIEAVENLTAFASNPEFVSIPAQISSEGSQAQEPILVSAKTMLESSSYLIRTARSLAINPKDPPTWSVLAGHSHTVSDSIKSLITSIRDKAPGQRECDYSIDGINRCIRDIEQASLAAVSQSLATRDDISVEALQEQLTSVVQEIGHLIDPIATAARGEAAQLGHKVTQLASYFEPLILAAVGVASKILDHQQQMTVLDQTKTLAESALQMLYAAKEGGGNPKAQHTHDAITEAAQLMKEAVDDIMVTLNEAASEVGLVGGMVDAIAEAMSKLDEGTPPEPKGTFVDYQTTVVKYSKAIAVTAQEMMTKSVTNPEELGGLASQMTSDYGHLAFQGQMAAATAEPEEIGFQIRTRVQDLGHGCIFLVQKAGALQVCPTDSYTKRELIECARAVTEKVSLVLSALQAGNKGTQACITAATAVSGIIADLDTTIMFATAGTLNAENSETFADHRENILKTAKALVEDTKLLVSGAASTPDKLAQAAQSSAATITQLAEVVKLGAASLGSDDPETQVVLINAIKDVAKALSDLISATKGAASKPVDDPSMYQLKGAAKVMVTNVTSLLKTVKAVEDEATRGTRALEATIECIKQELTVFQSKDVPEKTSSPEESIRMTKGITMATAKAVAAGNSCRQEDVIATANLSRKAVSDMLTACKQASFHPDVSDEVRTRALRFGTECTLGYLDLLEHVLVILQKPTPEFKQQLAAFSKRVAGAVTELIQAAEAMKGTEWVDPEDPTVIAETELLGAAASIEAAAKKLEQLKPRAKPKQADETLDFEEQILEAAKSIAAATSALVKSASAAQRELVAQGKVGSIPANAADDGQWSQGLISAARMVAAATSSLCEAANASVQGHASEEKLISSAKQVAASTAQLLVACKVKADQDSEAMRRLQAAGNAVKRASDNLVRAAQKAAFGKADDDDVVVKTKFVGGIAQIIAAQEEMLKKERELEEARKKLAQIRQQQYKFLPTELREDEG
UniProt Q9H061: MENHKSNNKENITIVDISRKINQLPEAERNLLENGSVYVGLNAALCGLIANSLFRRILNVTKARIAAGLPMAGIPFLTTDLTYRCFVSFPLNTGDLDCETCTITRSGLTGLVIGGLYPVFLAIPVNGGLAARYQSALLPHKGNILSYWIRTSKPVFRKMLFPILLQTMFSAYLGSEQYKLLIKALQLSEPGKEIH
UniProt Q9Y3A6: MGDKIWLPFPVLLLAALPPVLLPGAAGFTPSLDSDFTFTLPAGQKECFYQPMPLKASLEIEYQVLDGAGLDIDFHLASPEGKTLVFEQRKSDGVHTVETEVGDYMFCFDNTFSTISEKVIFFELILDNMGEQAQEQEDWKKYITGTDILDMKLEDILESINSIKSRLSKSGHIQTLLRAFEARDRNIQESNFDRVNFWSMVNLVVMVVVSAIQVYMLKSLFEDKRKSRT
UniProt Q9Y2S6, whole entry, looked up: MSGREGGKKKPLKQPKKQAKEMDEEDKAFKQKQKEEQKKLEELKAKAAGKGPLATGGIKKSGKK
UniProt Q9NX61: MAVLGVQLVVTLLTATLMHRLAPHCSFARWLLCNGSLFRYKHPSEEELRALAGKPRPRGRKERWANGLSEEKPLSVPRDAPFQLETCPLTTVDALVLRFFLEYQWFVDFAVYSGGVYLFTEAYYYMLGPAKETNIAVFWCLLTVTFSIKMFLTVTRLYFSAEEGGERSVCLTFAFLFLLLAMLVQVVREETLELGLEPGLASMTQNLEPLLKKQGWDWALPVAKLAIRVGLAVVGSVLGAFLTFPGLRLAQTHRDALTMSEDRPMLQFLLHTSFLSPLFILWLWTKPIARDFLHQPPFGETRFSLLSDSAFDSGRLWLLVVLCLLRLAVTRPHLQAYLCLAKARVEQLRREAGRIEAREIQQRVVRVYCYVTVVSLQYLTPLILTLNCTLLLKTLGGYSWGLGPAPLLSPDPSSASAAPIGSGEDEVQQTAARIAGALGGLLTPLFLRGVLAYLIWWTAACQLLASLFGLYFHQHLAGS
UniProt O43615: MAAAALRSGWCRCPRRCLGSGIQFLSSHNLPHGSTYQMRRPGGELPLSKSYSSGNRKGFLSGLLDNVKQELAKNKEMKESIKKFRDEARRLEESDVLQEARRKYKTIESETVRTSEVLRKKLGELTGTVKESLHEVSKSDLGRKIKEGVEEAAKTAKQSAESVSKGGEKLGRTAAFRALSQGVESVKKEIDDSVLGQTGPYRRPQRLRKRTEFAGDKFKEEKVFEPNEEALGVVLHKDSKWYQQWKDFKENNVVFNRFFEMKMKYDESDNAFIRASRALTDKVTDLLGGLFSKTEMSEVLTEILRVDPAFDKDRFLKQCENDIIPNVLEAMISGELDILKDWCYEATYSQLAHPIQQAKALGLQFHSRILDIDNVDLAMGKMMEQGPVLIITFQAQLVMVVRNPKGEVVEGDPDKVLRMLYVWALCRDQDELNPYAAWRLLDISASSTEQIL
UniProt P49755: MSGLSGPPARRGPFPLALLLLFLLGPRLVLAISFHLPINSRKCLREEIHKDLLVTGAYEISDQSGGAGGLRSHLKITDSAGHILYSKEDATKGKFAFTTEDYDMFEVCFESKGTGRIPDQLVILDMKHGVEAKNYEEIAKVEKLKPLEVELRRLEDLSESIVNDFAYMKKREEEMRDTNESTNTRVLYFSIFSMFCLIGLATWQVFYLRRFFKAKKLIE
UniProt O75663: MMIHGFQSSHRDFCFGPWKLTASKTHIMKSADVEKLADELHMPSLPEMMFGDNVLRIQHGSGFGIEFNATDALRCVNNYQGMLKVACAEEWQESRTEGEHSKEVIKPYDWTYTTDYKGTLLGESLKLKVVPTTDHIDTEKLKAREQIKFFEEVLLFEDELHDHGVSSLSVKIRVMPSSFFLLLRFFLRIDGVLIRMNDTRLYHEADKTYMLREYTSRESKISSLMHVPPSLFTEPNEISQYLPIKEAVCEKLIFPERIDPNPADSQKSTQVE
UniProt O60830: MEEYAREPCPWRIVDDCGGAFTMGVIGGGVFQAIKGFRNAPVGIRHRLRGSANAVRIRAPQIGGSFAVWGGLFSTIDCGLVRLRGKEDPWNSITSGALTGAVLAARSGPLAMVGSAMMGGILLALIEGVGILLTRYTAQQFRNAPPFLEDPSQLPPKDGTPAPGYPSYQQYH
UniProt Q3ZCQ8: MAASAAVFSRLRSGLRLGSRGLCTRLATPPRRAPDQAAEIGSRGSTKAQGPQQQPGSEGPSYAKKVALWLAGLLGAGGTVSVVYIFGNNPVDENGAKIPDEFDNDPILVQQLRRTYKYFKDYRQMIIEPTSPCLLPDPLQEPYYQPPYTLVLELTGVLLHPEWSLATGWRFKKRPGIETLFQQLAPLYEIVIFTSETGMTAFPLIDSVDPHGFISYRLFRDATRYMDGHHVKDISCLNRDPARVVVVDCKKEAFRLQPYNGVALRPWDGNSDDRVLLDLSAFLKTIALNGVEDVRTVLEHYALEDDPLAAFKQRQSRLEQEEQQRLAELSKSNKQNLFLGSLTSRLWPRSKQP
UniProt Q6PL24: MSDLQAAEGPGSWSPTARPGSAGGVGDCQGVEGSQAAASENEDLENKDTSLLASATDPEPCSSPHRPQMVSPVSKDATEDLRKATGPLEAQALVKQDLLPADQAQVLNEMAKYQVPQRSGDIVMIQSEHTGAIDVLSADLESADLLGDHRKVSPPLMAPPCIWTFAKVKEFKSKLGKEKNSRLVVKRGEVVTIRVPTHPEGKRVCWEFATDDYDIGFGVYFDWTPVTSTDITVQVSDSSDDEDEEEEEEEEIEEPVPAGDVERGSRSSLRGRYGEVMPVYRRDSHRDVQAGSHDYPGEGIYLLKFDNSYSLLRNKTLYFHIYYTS
UniProt Q01085: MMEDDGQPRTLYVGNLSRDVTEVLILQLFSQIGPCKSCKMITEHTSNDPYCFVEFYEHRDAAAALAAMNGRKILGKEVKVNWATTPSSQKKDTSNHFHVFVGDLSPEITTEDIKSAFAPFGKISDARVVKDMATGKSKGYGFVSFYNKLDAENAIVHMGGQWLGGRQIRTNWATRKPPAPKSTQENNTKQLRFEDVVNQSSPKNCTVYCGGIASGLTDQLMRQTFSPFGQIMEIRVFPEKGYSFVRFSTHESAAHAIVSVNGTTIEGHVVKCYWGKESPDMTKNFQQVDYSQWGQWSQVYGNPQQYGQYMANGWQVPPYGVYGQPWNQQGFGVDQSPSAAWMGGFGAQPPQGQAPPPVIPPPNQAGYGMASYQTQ

Compound: CNC(=O)c1ccc(Nc2ncc(C(F)(F)F)c(NCc3nccnc3N(C)S(C)(=O)=O)n2)cc1 [defactinib]
Assay: log2 fold change, soluble protein after heating vs DMSO (PISA); higher = thermal stabilisation; K562 lysate, 10 uM; active = over 0.2 and 3.5 SD of the protein, either way, in both replicates (recomputed)
Method in brief: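 Following dounce homogenisation of K562 pellets in PBS pH 7.4 with 1 mM MgCl2, crude extract at 1 mg/mL protein was incubated for 30 min with 10 μM compound. Aliquots were then heated for 3 min over 48°C-58°C and pooled, NP-40 was added to 0.5% at 4°C, and soluble protein was recovered as the supernatant at 21,000xg for 90 min. Channel-sum-equalised TMTpro 16plex LC-MS/MS quantified this protein. Each value, from duplicates, is a log-two fold change in thermal stability relative to solvent controls.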

Row | Target | log2 fold change
1 | TGS1 (UniProt Q96RS0) | inactive: 0.043
2 | TIMM29 (UniProt Q9BSF4) | inactive: 0.051
3 | TLN2 (UniProt Q9Y4G6) | inactive: -0.023
4 | TMEM126A (UniProt Q9H061) | inactive: -0.002
5 | TMED5 (UniProt Q9Y3A6) | inactive: 0.029
6 | TMA7 (UniProt Q9Y2S6) | inactive: -0.022
7 | TIMM22 (UniProt Q9Y584) | inactive: 0.018
8 | TMEM161A (UniProt Q9NX61) | inactive: 0.073
9 | TIMM44 (UniProt O43615) | inactive: 0.018
10 | THEM4 (UniProt Q5T1C6) | inactive: 0.025
11 | TMED10 (UniProt P49755) | inactive: -0.002
12 | TMA16 (UniProt Q96EY4) | inactive: -0.042
13 | TIPRL (UniProt O75663) | inactive: -0.016
14 | TIMM17A (UniProt Q99595) | inactive: -0.029
15 | TIMM17B (UniProt O60830) | inactive: -0.011
16 | TIMM50 isoform 2 (UniProt Q3ZCQ8) | inactive: -0.017
17 | TMED8 (UniProt Q6PL24) | inactive: 0.001
18 | TIAL1 isoform 2 (UniProt Q01085) | inactive: 0.006

2 entries drawn at random from the list so far:
Row | Target | log2 fold change
18 | TIAL1 isoform 2 (UniProt Q01085) | inactive: 0.006
5 | TMED5 (UniProt Q9Y3A6) | inactive: 0.029
